Paper PMC7667687
Results are given in words; binding and its absence hold for the method and conditions named. In cells and extracts the contact can be indirect. Some entries that bind do so weakly or less than the wild type.

Chains of the proteins cited; added tags and fusions are not shown. Residues count along the entry.
UniProt Q9NZQ7, residues 19-290: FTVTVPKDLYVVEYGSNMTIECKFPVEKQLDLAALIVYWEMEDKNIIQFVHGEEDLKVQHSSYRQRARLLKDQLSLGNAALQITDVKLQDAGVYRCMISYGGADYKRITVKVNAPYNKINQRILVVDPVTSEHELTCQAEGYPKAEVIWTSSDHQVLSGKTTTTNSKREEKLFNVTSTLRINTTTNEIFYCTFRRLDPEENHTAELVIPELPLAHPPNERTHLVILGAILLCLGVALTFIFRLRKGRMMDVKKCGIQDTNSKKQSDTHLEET

B1: CCCTC-binding factor (CTCF) (protein, UniProt P49711 1-727)
chain: MEGDAVEAIVEESETFIKGKERKTYQRRREGGQEEDACHLPQNQTDGGEVVQDVNSSVQMVMMEQLDPTLLQMKTEVMEGTVAPEAEAAVDDTQIITLQVVNMEEQPINIGELQLVQVPVPVTVPVATTSVEELQGAYENEVSKEGLAESEPMICHTLPLPEGFQVVKVGANGEVETLEQGELPPQEDPSWQKDPDYQPPAKKTKKTKKSKLRYTEEGKDVDVSVYDFEEEQQEGLLSEVNAEKVVGNMKPPKPTKIKKKGVKKTFQCELCSYTCPRRSNLDRHMKSHTDERPHKCHLCGRAFRTVTLLRNHLNTHTGTRPHKCPDCDMAFVTSGELVRHRRYKHTHEKPFKCSMCDYASVEVSKLKRHIRSHTGERPFQCSLCSYASRDTYKLKRHMRTHSGEKPYECYICHARFTQSGTMKMHILQKHTENVAKFHCPHCDTVIARKSDLGVHLRKQHSYIEQGKKCRYCDAVFHERYALIQHQKSHKNEKRFKCDQCDYACRQERHMIMHKRTHTGEKPYACSHCDKTFRQKQLLDMHFKRYHDPNFVPAAFVCSKCGKTFTRRNTMARHADNCAGPDGVEGENGGETKKSKRGRKRKMRSKKEDSSDSENAEPDLDDNEDEEEPAVEIEPEPEPQPVTPAPPPAKKRRGRPPGRTNQPKQNQPTAIIQVEDQNTGAIENIIVEVKKEPDAEPAEGEEEEAQPAATDAPNGDLTPEMILSMMDR

Columns and labels:
[1] = biological target: T1, CCCTC-binding factor (CTCF) (human (endogenous in SGC-7901)) (UniProt P49711); experiment: co-IP; SGC-7901 whole cell lysate (RIPA buffer); IP with anti-PD-L1 antibody or anti-CTCF antibody, protein A/G PLUS-Agarose, 4°C; detected by western blot
T1 sequence: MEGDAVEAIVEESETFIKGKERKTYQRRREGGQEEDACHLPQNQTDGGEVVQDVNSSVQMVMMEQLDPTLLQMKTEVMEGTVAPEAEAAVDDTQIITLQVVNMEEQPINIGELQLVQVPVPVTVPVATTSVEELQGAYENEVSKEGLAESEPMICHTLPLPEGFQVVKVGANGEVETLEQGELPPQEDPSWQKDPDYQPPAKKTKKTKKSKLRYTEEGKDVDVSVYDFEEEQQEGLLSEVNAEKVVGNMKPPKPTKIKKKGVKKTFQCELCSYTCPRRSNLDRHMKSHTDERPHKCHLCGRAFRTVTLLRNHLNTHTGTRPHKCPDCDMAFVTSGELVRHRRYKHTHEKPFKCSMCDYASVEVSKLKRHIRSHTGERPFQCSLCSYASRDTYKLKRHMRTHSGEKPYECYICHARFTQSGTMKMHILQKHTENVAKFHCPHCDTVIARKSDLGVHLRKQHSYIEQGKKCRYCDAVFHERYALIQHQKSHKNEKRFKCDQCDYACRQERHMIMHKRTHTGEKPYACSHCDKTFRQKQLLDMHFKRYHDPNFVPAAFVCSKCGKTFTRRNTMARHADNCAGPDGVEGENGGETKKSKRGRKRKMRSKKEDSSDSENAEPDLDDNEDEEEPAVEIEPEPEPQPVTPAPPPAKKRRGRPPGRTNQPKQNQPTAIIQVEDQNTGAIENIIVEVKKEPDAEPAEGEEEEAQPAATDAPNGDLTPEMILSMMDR

[2] = biological target: programmed cell death ligand 1 (PD-L1) (human (endogenous in SGC-7901)) (UniProt Q9NZQ7); experiment: as above

Molecule	binding [1]	binding [2]
programmed cell death ligand 1 (PD-L1) (from UniProt Q9NZQ7 19-290)	binds	
B1		binds
